# Measurements from the supplement of paper PMC12823440, “Inhibitors supercharge kinase turnover through native proteolytic circuits” (Nature, 2025).
# By UniProt entry, the sequences of proteins in these tests, tags left out. Where a name states a change or a piece, a line headed by the entry shows the natural chain unless it says otherwise.
# UniProt Q9BUB5: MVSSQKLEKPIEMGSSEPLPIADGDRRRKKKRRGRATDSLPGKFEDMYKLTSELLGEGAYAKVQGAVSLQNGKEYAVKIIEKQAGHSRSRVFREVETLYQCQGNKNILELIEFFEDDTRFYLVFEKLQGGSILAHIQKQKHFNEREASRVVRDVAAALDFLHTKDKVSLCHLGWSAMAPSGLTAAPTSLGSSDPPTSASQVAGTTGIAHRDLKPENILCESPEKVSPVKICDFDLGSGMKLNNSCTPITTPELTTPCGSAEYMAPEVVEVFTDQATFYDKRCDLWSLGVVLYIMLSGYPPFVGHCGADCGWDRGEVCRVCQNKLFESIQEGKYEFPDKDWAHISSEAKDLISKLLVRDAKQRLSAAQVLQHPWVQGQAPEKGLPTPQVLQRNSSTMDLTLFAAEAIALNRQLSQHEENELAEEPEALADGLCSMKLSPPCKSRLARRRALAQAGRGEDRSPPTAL
# Structures can show the parent of a compound that is named as a salt. Some of the results follow. Hit calls seldom repeat between salt and free forms of one compound.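 Kinases were expressed as nanoluciferase fusions in K562 cells and luminescence was read every 4 h between 2 and 18 h as percent of control, DMSO set to 100% and a positive control to 0%. A time point counts as decreased when the signal drops significantly (2 sigma). The hit call is the authors' own, does not follow from the count of time points alone, and its rule is not shown.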
# Target: MKNK1 (UniProt Q9BUB5)
# Experiment: number of time points (of 5) at which kinase-Nluc abundance scored as decreased, DMSO-normalised (count); higher = more persistent destabilization
# Conditions: K562; 2-18 h
row,SMILES,number of time points
1,Cc1[nH]c(/C=C2\C(=O)Nc3ccc(F)cc32)c(C)c1C(=O)N[C@H]1CCN(C(=O)N(C)C)C1 [Vorolanib] (10 µM),0
2,NC(=O)c1ccc(-c2nc(-c3ccc4c(c3)OCCO4)c(-c3ccccn3)[nH]2)cc1 (10 µM),0
3,Cc1ccc2cc(-c3c(C)ccc(C(=O)c4c(-c5ccccc5)n(C)n(-c5ccccc5)c4=O)c3N)ccc2n1 (2.5 µM),0
4,OCCn1cc(-c2ccc3c(c2)CC/C3=N\O)c(-c2ccncc2)n1 (10 µM),0
5,NCCNS(=O)(=O)c1cccc2c(Cl)cccc12 [A-3 (hydrochloride)] (10 µM),0
6,COc1cccc(OC)c1C(=O)OCc1cc(O)ccc1O[C@@H]1O[C@H](CO)[C@@H](O)[C@H](O)[C@H]1O [Curculigoside] (10 µM),0
7,CC#CC(=O)N1CC[C@@H](n2c(=O)n(-c3ccc(Oc4ccccc4)cc3)c3c(N)ncnc32)C1 [Tirabrutinib] (10 µM),0
8,CC1=C(C(=O)O)N2C(=O)[C@@H](NC(=O)[C@H](N)C3=CCC=CC3)[C@H]2SC1 [Cephradine] (10 µM),0
9,CC(C)(C)c1nc(-c2cccc(NS(=O)(=O)c3c(F)cccc3F)c2F)c(-c2ccnc(N)n2)s1 [Dabrafenib] (2.5 µM),0
10,COc1cc2c(N3CCN(C(=O)Nc4ccc(OC(C)C)cc4)CC3)ncnc2cc1OCCCN1CCCCC1 [Tandutinib] (10 µM),0
11,Nc1cc(C(F)(F)F)c(-c2cc(N3CCOCC3)nc(N3CCOCC3)n2)cn1 [Buparlisib (Hydrochloride)] (2.5 µM),1
12,Cn1cc(-c2ccc3c(c2)CCN3C(=O)Cc2cccc(C(F)(F)F)c2)c2c(N)ncnc21 (2.5 µM),0
13,O=C1NC(=O)/C(=C/c2ccc3nccnc3c2)S1 (10 µM),0
14,Cn1ncc(Cl)c1-c1cc(C(=O)N[C@H](CN)Cc2ccc(F)c(F)c2)oc1Cl [Uprosertib] (10 µM),0
15,COCCNc1nc2ccc(C#CC3(O)CCCCC3)cc2n1-c1ccnc(N)n1 (10 µM),0
16,CC(=O)NC1CC(n2cnc(NC(=O)Cc3ccc4ccccc4c3)c2)C1 (stereo unspecified) (10 µM),0
17,COc1cc(Nc2ncc(F)c(Nc3ccc4c(n3)NC(=O)C(C)(C)O4)n2)cc(OC)c1OC (10 µM),0
18,C=C(CC[C@@H](C(=O)O)[C@H]1[C@H](O)C[C@@]2(C)C3=C(CC[C@]12C)[C@@]1(C)CC[C@H](OC(C)=O)C(C)(C)[C@@H]1CC3)C(C)C [Pachymic acid] (10 µM),0
19,O=C(NOCC(O)CO)c1cc(Br)c(F)c(F)c1Nc1ccc(I)cc1F (stereo unspecified) (2.5 µM),0
20,Nc1nc2ccc(Cl)cc2c2nc(-c3ccco3)nn12 (10 µM),0
21,O=C(CSC1=NCCN1)NC1CCCCCC1 [ICCB-19 (hydrochloride)] (2.5 µM),0
22,O=Nc1c(-c2c(O)[nH]c3ccc(I)cc23)[nH]c2ccccc12 [5-Iodo-indirubin-3'-monoxime] (10 µM),0
23,Nc1nc(F)nc2c1ncn2[C@@H]1O[C@H](CO)[C@@H](O)[C@@H]1O [Fludarabine] (10 µM),0
24,Cc1cc(=O)oc2c(C=O)c(O)ccc12 (10 µM),0
25,C[C@@H]1CC[C@@H](Nc2nc(NC(C)(C)C)ncc2C(N)=O)C[C@H]1O (10 µM),0
26,NC(=O)c1nc(Nc2ccccc2)sc1NC(=O)C1CCCCC1 (10 µM),0
